Test results: patent US6369068B1, “Amino substituted pyrimidine containing compounds” (Smithkline Beecham Corporation, priority 1995, dated 2002)
Some of these results come from one statement about several compounds together.

Chains of the proteins cited; added tags and fusions are not shown.
UniProt Q16539, whole entry: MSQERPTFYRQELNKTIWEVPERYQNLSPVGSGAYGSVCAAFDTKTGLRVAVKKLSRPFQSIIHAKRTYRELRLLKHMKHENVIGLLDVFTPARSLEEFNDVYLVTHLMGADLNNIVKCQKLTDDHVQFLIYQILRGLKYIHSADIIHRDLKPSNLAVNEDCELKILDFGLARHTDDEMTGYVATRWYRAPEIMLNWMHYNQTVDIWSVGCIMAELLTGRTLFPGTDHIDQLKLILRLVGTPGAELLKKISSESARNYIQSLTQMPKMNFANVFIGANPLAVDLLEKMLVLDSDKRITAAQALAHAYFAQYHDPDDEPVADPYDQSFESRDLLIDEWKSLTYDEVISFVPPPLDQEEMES

Target: T1, CSBP2 (Homo sapiens, UniProt Q16539)
T1 construct: made in house; host or cells: yeast
Test: CSBP Kinase Assay
Type: biochemical
Details: yeast-expressed purified CSBP2; T669 peptide substrate; 170 uM ATP (Km)

## Cc1c(F)cccc1Nc1nccc(-c2c(-c3ccc(F)cc3)ncn2C2CCNCC2)n1 [Example 15]
  IC50: < 50 µM
